The source of these data is publication PMC5354453.

Chains of the proteins cited; added tags and fusions are not shown. Lines headed by an entry give the natural chain unless they say otherwise; changes in a name come on top.
UniProt P04150: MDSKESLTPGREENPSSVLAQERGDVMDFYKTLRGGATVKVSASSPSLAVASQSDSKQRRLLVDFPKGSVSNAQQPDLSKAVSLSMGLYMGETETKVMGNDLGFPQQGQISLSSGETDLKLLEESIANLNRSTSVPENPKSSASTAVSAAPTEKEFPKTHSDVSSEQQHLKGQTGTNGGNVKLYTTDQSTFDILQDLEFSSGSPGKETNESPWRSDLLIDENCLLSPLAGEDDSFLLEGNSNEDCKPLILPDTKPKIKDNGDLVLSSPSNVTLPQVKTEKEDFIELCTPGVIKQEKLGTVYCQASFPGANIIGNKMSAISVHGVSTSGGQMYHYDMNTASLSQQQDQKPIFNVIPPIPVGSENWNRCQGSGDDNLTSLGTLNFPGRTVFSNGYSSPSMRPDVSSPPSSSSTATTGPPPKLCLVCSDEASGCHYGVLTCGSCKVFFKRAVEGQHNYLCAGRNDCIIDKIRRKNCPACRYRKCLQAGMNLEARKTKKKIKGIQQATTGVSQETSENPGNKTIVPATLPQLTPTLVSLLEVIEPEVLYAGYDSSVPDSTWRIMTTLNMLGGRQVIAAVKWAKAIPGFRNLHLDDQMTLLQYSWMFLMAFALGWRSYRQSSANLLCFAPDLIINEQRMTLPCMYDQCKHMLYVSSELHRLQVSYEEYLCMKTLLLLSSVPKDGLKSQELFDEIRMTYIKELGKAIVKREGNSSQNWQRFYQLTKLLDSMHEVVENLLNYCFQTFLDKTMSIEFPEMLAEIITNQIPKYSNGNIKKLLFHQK

Results are given in words; binding and its absence hold for the method and conditions named. Binding seen in cells or lysates may run through a third protein. Some binding calls cover weakened binding; strength is not graded here.

The chains are these.
B1: p23 (protein, UniProt Q15185 1-160)
chain: MQPASAKWYDRRDYVFIEFCVEDSKDVNVNFEKSKLTFSCLGGSDNFKHLNEIDLFHCIDPNDSKHKRTDRSILCCLRKGESGQSWPRLTKERAKLNWLSVDFNNWKDWEDDSDEDMSNFDRFSEMMNNMGGDEDVDLPEVDGADDDSQDSDDEKMPDLE
B2: FKBP52 (protein, UniProt Q02790 1-459)
chain: MTAEEMKATESGAQSAPLPMEGVDISPKQDEGVLKVIKREGTGTEMPMIGDRVFVHYTGWLLDGTKFDSSLDRKDKFSFDLGKGEVIKAWDIAIATMKVGEVCHITCKPEYAYGSAGSPPKIPPNATLVFEVELFEFKGEDLTEEEDGGIIRRIQTRGEGYAKPNEGAIVEVALEGYYKDKLFDQRELRFEIGEGENLDLPYGLERAIQRMEKGEHSIVYLKPSYAFGSVGKEKFQIPPNAELKYELHLKSFEKAKESWEMNSEEKLEQSTIVKERGTVYFKEGKYKQALLQYKKIVSWLEYESSFSNEEAQKAQALRLASHLNLAMCHLKLQAFSAAIESCNKALELDSNNEKGLFRRGEAHLAVNDFELARADFQKVLQLYPNNKAAKTQLAVCQQRIRRQLAREKKLYANMFERLAEEENKAKAEASSGDHPTDTEMKEEQKSNTAGSQSQVETEA

For this experiment, the target named is activation-labile mutant glucocorticoid receptor GR^act/l (hGR L753F) (human (endogenous in CEM-3R43)) (UniProt P04150). Briefly: co-IP; CEM-3R43 cytosolic extracts: control without TMAO, plus 3 M TMAO, or from cells treated with 50 mM TMAO and kept in TMAO; primary antibody to GR, blots with antibodies to the chaperones.
For the molecule HOP (from UniProt P31948 1-543), the binding result is listed as “binds”.

With B1, the binding entry is “binds”.

For B2, the binding entry is “binds”.
